The other results are listed elsewhere or left out.
B1: il10ra_site1_sap_28_mot_HHH_b2_03220_af2_000000223_0001_23_40_H_._HHH_b2_00648_af2_0001_0000100001_0000001_0_0001_af2pred_0001 (protein)
chain: SSSSNAERRVAELLAEALRLANNGNPEEAEKLVEEAEELARENNDPELERAVEMAKRYIRNSSSS
B2: il10ra_site1_sap_16_mot_HHH_b2_05454_000000273_0001_1_18_H_._HHH_b1_01562_0001_0000500022_0000001_1_0001 (protein)
chain: SSSSSDEEVEELLEEARELAENGNPREAMRVLAEAVRAAYELQDEELLQAVWELVQEIAKSSSSS
B3: il10ra_site1_normal_mot_HHH_b1_00999_000000080_0001_41_55_H_._HHH_b2_05235_0001_0000500028_0000001_0 (protein)
chain: SSSSSSDVEELLEEAQELRERGNPEEALEVLQRAVRLIFELGDEELLQELWELVRKIGSSSSSSS
B4: il10ra_site1_sap_23_mot_HHH_b2_04001_000000102_0001_19_36_H_._HHH_b2_05818_af2_0001_0000500014_0000001_0_0001_af2pred_dldesign_0_af2pred (protein)
chain: SSSSSEFERLYEEAKRLLEEGDLERLAELLRRLAILAQEAKDKEKFDKVTELAIKLMELESSSSS
B5: il10ra_site1_normal_mot_HHH_b2_03425_000000200_0001_22_39_H_._HHH_b1_03120_0001_0000100001_0000001_0 (protein)
chain: SSSSNEEHEELYRRLRKLIELVSEGDEEEAEELLEELERLARELNDFIILFVVRLLKRQLSSSSS
B6: il10ra_site1_sap_23_mot_HHH_b1_02881_000000046_0001_1_20_H_._HHH_b2_07693_0001_0000300021_0000002_0_0001 (protein)
chain: SSSSDELSHEVYELLREAMELAANGNPEKAREVLEEAEEIAEESGSPVMEVLVRNMLRRLSSSSS
B7: il10ra_site1_sap_26_mot_HHH_b2_08004_000000101_0001_1_17_H_._HHH_b1_02361_af2_0001_0000100002_0000001_1_0001 (protein)
chain: SSSSSDEEFFRRIEEFAEEVGDEQILRYIRFMAMAYEMSGDPQVKRFAEQMFRWLEEKEKSSSSS
B8: il10ra_site1_normal_mot_HHH_b2_03764_000000138_0001_1_20_H_._HHH_b2_04981_0001_0000400040_0000002_0_af2pred_0001 (protein)
chain: SSSSDEEFEEVRRLLEEASELDNRGDREEAEKLVEEAIELAREGGNELLTLAAEYLLRIIRSSSS
B9: il10ra_site1_normal_mot_8756ee2cf497b5429c717dfc0c0bcfd6_0001_000000186_0001_1_13_H_._HHH_b2_01109_0001_0000300018_0000001_0_af2pred_0001 (protein)
chain: SSSSSAAERVAKLIRKAIELLRNGNPEEAREVLEEAEEVAEEGNNLNLRAVLKFLKERVNSSSSS
B10: il10ra_site1_sap_21_mot_HHH_b1_03314_af2_000000278_0001_42_55_H_._HHH_b2_06669_af2_0001_0000100001_0000001_0_0001 (protein)
chain: SSSSNDEVYEIIRRAIELLSEGDPEEAKKLVEEVKELAEEENSPVMEVLVRFLERMVEETSSSSS
B11: il10ra_site1_sap_18_mot_HHH_b2_01032_000000296_0001_1_18_H_._HHH_b2_04729_0001_0000300020_0000002_0_0001 (protein)
chain: SSSSSEAIRRIYELSRRAVELDSEGNPEEAREVVEEAIELAEEEGDPVLLRVLEHILKLLSSSSS
B12: il10ra_site1_sap_17_mot_HHH_b2_07006_000000108_0001_1_19_H_._HHH_b2_04110_0001_0000200021_0000001_0_0001 (protein)
chain: SSSSSDEVYELLQELVEAVSDGDEELFEELYERIRELVEEENNPTMRWSLEFLERDFKVRKSSSS
B13: il10ra_site1_sap_28_mot_HHH_b1_05937_af2_000000262_0001_20_37_H_._HHH_b2_07271_af2_0001_0000200012_0000001_0_0001 (protein)
chain: SSSSSDEEEQEIKALLWFAKWIPNPDAARIALERALRLAEELGNEELLEEAERLLEELNSSSSSS
B14: il10ra_site1_normal_mot_HHH_b2_00475_000000107_0001_44_57_H_._HHH_b1_05905_af2_0001_0000300009_0000001_0 (protein)
chain: SSSSDEFLRILFRLVRAAANNDEELLEELLEILEELLKHIEDEELRRYAEIALHFVRAQLESSSS
B15: il10ra_site1_sap_14_mot_HHH_b1_02896_af2_000000065_0001_1_17_H_._HHH_b1_03031_af2_0001_0000100002_0000003_0_0001_af2pred_0001 (protein)
chain: SSSSDEEAEEIIEQIEELLKRGNLHEAIRLIRELAKLVHELGDQELAEKVRELSREALKLSSSSS
B16: il10ra_site1_normal_mot_HHH_b1_02062_000000185_0001_1_20_H_._HHH_b2_00165_0001_0000200025_0000001_0 (protein)
chain: SSSSSDKSQELYELSREAAELDSEGNPEEAERLAEEAYELAEEEGSPLLFTIEYLLKHIRSSSSS
B17: il10ra_site1_normal_mot_HHH_b2_07442_000000239_0001_40_54_H_._HHH_b1_08410_0001_0000200019_0000001_1 (protein)
chain: SSSSSEELYEALRRLAELDTKGDEEEFERLVEEAERLAEELGDETFLIQIEFLLRIFREALSSSS
B18: il10ra_site1_normal_mot_HHH_b2_02053_af2_000000006_0001_3_19_H_._HHH_b1_02506_0001_0000200015_0000001_0 (protein)
chain: SSSSSDRDEEVYELIREALELRARGNPEEAREVLEEAEKLAEEANNFAALFAVRLALRDLSSSSS
B19: il10ra_site1_normal_mot_ems_3hC_416_0001_000000048_0001_1_19_H_._HHH_b1_01643_af2_0001_0000300024_0000001_0 (protein)
chain: SSSSSEENQEALELSQEAFRLLLRGNEEEAKELLEEALELAKKGGNPRLARQIEELLRSLNSSSS
B20: il10ra_site1_sap_24_mot_HHH_b1_05099_000000057_0001_40_58_H_._HHH_b1_01519_0001_0000200010_0000001_0_0001 (protein)
chain: SSSSSREAYELARRIVELILEGNPEEAEELLEELERIVRERGDQLMEFIVRLLEEQLRRLRSSSS
B21: il10ra_site1_normal_mot_HHH_b1_05056_000000217_0001_1_20_H_._HHH_b2_03821_0001_0000200015_0000001_0 (protein)
chain: SSSSSDEEYRERVEELLEEAQEIEDQEEVARLILEAIRLAYEANDQELLQLIWEVVRELTSSSSS
B22: il10ra_site1_normal_mot_HHH_b2_08186_000000021_0001_43_56_H_._HHH_b2_06806_af2_0001_0000100007_0000002_0 (protein)
chain: SSSSDEEQEELEKLLKELEELIKEGDRERFLRLLQEVLRLAYRLSDEEALRRVWELLREFASSSS
B23: il10ra_site1_normal_mot_HHH_b2_00984_000000042_0001_1_20_H_._ems_p1-16H-GBL-16H-GABBL-15H_0053_0001_0001_0001_0001_0000400027_0000001_0 (protein)
chain: SSSSSSEIVELALKLARLALEKGDEEALQVVWEAIQAWARGELSEEEVKELLEEAEELLSSSSSS
B24: il10ra_site1_sap_16_mot_HHH_b2_00612_000000251_0001_1_14_H_._HHH_b1_01579_af2_0001_0000400023_0000001_0_0001 (protein)
chain: SSSSSNEEFLELLQEAIRLAFRNSDEELLQALWRLAKEYGEEGDEKYREELEELIEEVGSSSSSS
B25: il10ra_site1_normal_mot_HHH_b2_08265_af2_000000206_0001_22_38_H_._HHH_b2_04256_0001_0000100002_0000001_0 (protein)
chain: SSSSSSSDLEELEREIEEALEEGDRELVLRLLQELLRLAFRLRDQEAIRFVWEVARELSSSSSSS
B26: il10ra_site1_normal_mot_HHH_b2_03220_af2_000000223_0001_23_40_H_._HHH_b1_07014_af2_0001_0000800025_0000001_0 (protein)
chain: SSSSDDASEEVWELLRRILELLAEGDEEEAEELLRRAKELAEEINSPVFETTLRLLEREISSSSS
B27: il10ra_site1_normal_mot_HHH_b2_07144_000000289_0001_1_18_H_._HHH_b1_01561_af2_0001_0000300017_0000001_0 (protein)
chain: SSSSNEVHEVYRLSREILRLIREGDEEQAEKLLEEVRELAEELNNFLLRFIVRALQRALNSSSSS
B28: il10ra_site1_sap_26_mot_9c3e5e2d2b9ffb70dc788f52fbfab6d5_0001_1_000000198_0001_1_14_H_._HHH_b1_03834_0001_0000100001_0000001_0_0001 (protein)
chain: SSSSSDEEEERIEELEEEIRQIDDPREFVRLLLELVRLAFQSRDPEALQLAMELARELVSSSSSS
B29: il10ra_site1_normal_mot_HHH_b2_07521_000000141_0001_20_37_H_._HHH_b2_04176_0001_0000400030_0000001_0 (protein)
chain: SSSSDRYVELAIKFAKALIKNGDLEAARRLLEAAAQIAEKLNNPELLEEIQELIKEVEELGSSSS
B30: il10ra_site1_sap_17_mot_HHH_b2_00076_000000055_0001_40_55_H_._HHH_b1_01022_af2_0001_0000200011_0000001_0_0001 (protein)
chain: SSSSTRYEEVEKIIREALELAENGDPEEAEELLRRLEEKLEELGDRVVLHSVRHALRDVEQSSSS
B31: il10ra_site1_sap_12_mot_e1dd4851c59bc1cdde016f988f6856bd_0001_1_000000200_0001_16_31_H_._HEEHE_3255_0001_0000100006_0000001_0_0001 (protein)
chain: SSSSSTEEALENMIESLELALELGDEHYIENALRFLELLARYLKDEEAERVVEEVKRELNSSSSS
B32: il10ra_site1_sap_16_mot_HHH_b2_02463_af2_000000222_0001_1_19_H_._HHH_b2_03785_0001_0000100002_0000002_0_0001 (protein)
chain: SSSSSEEEIEELLRRIKELIEEGDREEAHELLRRAIYLAARLNDPELYEKVLQLYLLLQRLSSSS
B33: il10ra_site1_normal_mot_HHH_b1_00929_000000068_0001_1_20_H_._HHH_b2_05703_0001_0000400028_0000001_0 (protein)
chain: SSSSSLERIWELLRRALELAAEGDPELEEEAKELVEEAKELARDPFQRSNIRLVEEQVERSSSSS
B34: il10ra_site1_normal_mot_HHH_b2_07569_000000265_0001_38_56_H_._HHH_b2_02901_0001_0000200009_0000001_0 (protein)
chain: SSSSDEEREEVEELLEEAKEIEDPEERIEVLLEATQLALEIQDPEAVQLVWRAAKELFKKSSSSS
B35: il10ra_site1_normal_mot_HHH_b1_05056_000000217_0001_1_20_H_._HHH_b2_02768_0001_0000400021_0000001_1 (protein)
chain: SSSSSSDVEERVEELLEEAEEIEDPREAARVLLEALRFALQASDERALQLVWEVVKRISSSSSSS
B36: il10ra_site1_sap_13_mot_HHH_b2_06664_af2_000000263_0001_19_36_H_._1c46792b9528a305c301eb4762002c6b_0001_0001_0000100003_0000001_0_0001_af2pred_0001 (protein)
chain: SSSSSDERDELAFEHLLWSAKNSDNEQLIRAALRFAREAAEKLNDPELEKEVEKLEEELSSSSSS
B37: il10ra_site1_normal_mot_HHH_b1_02004_000000220_0001_1_19_H_._HHH_b2_04613_af2_0001_0000200009_0000001_0 (protein)
chain: SSSSTDEEFELVKELVKRASELAENGNPEEAEKLLEEAERLAEESNNEALRFSVEHALRLLSSSS

Molecular target: il10ra, Q13651
Assay: yeast display titration

Apparent Kd, inactive:
B1 no binding seen, B2 no binding seen, B3 no binding seen, B4 no binding seen, B5 no binding seen, B6 no binding seen, B7 > 255 nM, B8 no binding seen, B9 no binding seen, B10 no binding seen, B11 no binding seen, B12 no binding seen, B13 no binding seen, B14 no binding seen, B15 no binding seen, B16 no binding seen, B17 no binding seen, B18 no binding seen, B19 no binding seen, B20 no binding seen, B21 no binding seen, B22 no binding seen, B23 no binding seen, B24 no binding seen, B25 no binding seen, B26 > 201 nM, B27 no binding seen, B28 no binding seen, B29 no binding seen, B30 no binding seen, B31 no binding seen, B32 no binding seen, B33 no binding seen, B34 no binding seen, B35 no binding seen, B36 no binding seen, B37 no binding seen
